Literature values, collected in patent publication US20120308616A1, “SUBMICRO EMULSION OF PACLITAXEL USING STEROID COMPLEX AS INTERMEDIATE CARRIER” (INSTITUTE OF MATARIA MEDICA, CHINESE ACADEMY OF MEDICAL …, priority 2009, published 2012).
≈ marks a conversion by molar mass, not a printed value.

In the case of `CC(=O)O[C@H]1C(=O)[C@@]2(C)[C@H]([C@H](OC(=O)c3ccccc3)[C@]3(O)C[C@H](OC(=O)[C@H](O)[C@@H](NC(=O)c4ccccc4)c4ccccc4)C(C)=C1C3(C)C)[C@]1(OC(C)=O)CO[C@@H]1C[C@@H]2O` [Paclitaxel], the solubility in water is listed as 6 ng/mL (≈ 7.03 nM).
